{"source": "PubChem BioAssay (EPA / NIEHS)", "note": "What follows is the remainder of the data, with few or none of the hits. Records with an inconclusive call do not appear. Calls of active or inactive are those of the source. The calls were made as follows: active = hit-call score of the fitted dose curve at least 0.9, where 1 is the maximum; inconclusive = response in the unintended direction; inactive = score below 0.9.", "data": [{"assay": "TOX21_TRB_BLA_Antagonist_Followup_viability: Viability Assessment in the Tox21 Thyroid Hormone Receptor beta Antagonism Beta-lactamase (BLA) Follow-Up Assay (AID 2283961)", "in_short": "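In the same wells as the reporter read, cell health was gauged by CellTiter-Glo ATP luminescence, with signal loss indicating reduced viability. Cells had been exposed to test compounds for 18 h.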", "values": [{"smiles": "COc1cc([C@@H]2c3cc4c(cc3[C@H](O)[C@H]3COC(=O)[C@H]23)OCO4)cc(OC)c1OC", "outcome": "inactive"}, {"smiles": "CCCCCCC[N+](CC)(CC)CCCCc1ccc(Cl)cc1", "outcome": "inactive"}, {"smiles": "CC(=O)O[C@@]12CO[C@@H]1C[C@H](O)[C@@]1(C)C(=O)[C@H](O)C3=C(C)[C@@H](OC(=O)[C@H](O)[C@@H](NC(=O)OC(C)(C)C)c4ccccc4)C[C@@](O)([C@@H](OC(=O)c4ccccc4)[C@H]21)C3(C)C", "outcome": "inactive"}]}]}
